Hit rate of the full screen: of about 330,000 compounds, about 7,700 (2.3%) were called active. This list was built around the results that the source calls inconclusive (neither active nor inactive); the mix of calls is not that of the screen. Calls come from the whole dose curve; as a rule, active = well fitted inhibition curve with a large enough effect; inconclusive = small, poorly fitted or top-dose-only effect, or effect the other way; inactive = flat fitted curve, though single readings scatter. A potency beside an inconclusive call is a rough fit, not a confirmed value.
Test: qHTS screen for small molecules that inhibit ELG1-dependent DNA repair in human embryonic kidney (HEK293T) cells expressing luciferase-tagged ELG1; note: nearly all actives have a fitted effect of over 55% in size
Conditions: HEK293T ELG1-luciferase reporter, luminescence, 16 h, DNA damage induced by 5-fluorouridine; activity change, negative = inhibition: at 46.1 µM (top of the series)
Procedure, shortened: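 5-Fluorouridine DNA damage + compound/DMSO, 2,000 cells/well, 16 h, 37 °C/5% CO2. ONE-Glo, 30 min RT, luminescence. Readout = decrease in reporter signal.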
% is set by controls: 0 for no effect and ±100 for the full control effect; potency is the fitted concentration of half-maximal effect.

SMILES | activity change, negative = inhibition | Potency
Cn1cc(Br)c(C(=O)NN2C(=O)C3C(C2=O)C2C=CC3C23CC3)n1 (stereo not given) | inactive: 1.7% | 
O=C(c1cccc(N2C(=O)C3CC=CCC3C2=O)c1)N1CCCc2ccccc21 (stereo not given) |  | inconclusive: 29.1 µM [activator, partial curve, poor fit]
O=C(CC1C(=O)NCCN1Cc1ccccc1)NCCN1CCCCC1=O (stereo not given) |  | inconclusive: 13 µM [activator, partial curve]
Cc1cccc(N(CC(=O)NC2CCCCC2)C(=O)CCC(=O)Nc2nccs2)c1 | inactive: 9.97% | 
Cc1sc2nc(C3CC3)nc(SCC(=O)NCc3ccco3)c2c1C |  | inconclusive: 28.2 µM [activator, single point]
CCC(C(=O)Nc1cnccn1)c1ccccc1 (stereo not given) | inactive: 0.14% | 
COc1ccc(C)cc1N(CC(=O)N1CCCCCC1)S(C)(=O)=O |  | inconclusive: 35.5 µM [inhibitor, single point]
CCCN(CCC)C(=O)c1cc(-c2ccc3c(c2)OCO3)nc2ccccc12 |  | active: 18.4 µM
Cc1ccc2c(C)c(C(=O)N(C)C(C)c3ccncn3)oc2c1C (stereo not given) | inactive: -6.72% | 
O=C(CSc1ncccn1)NCc1ccccc1Cl |  | inconclusive: 20.6 µM [activator, partial curve]
COCCNC(=S)N(CCc1c(C)[nH]c2ccc(F)cc12)Cc1cccs1 |  | inconclusive: 29.1 µM [inhibitor, single point]
CCN(CC(=O)Nc1ccc(S(=O)(=O)N2CCOCC2)cc1)Cc1ccccc1 | inactive: -0.548% | 
COC(=O)C1Cc2ccccc2CN1C(=O)CCl (stereo not given) |  | inconclusive: 10.3 µM [inhibitor, partial curve]
CCn1c(CSc2nc3ccccc3s2)n[nH]c1=S |  | inconclusive: 20.6 µM [activator, partial curve, poor fit]
CCOC(=O)N1CCC(N2C(=O)c3ccccc3C2Nc2ccccc2C)CC1 (stereo not given) | inactive: 4.47% | 
Cc1ccc(NC(=O)CN(C)S(=O)(=O)c2ccc3c(c2)n(C)c(=O)c(=O)n3C)cc1 | inactive: 12.2% | 
Cc1ccc(/C=C(\C#N)c2nc3ccccc3[nH]2)s1 |  | inconclusive: 1.46 µM [activator, full curve]
Cc1c(OCC(=O)NCC(O)c2ccccc2)ccc2c(-c3ccccc3)cc(=O)oc12 (stereo not given) |  | inconclusive: 5.17 µM [inhibitor, single point]
CN(Cc1ccccc1)C(=O)c1ccc(NC(=O)C2=CSCCO2)cc1 |  | inconclusive: 16.4 µM [activator, partial curve]
O=C(CCc1nnc2n(Cc3ccc(F)cc3)c(=O)c3ccccc3n12)N1CCN(c2ccccn2)CC1 |  | active: 14.6 µM
CCCCn1nc(C(=O)N(CC)CC(=O)Nc2c(F)cccc2F)c2ccccc2c1=O |  | inconclusive: 25.9 µM [inhibitor, partial curve, poor fit]
COc1ccccc1NC(=S)NCCN1CCOCC1 | inactive: -0.0727% | 
CC(=O)CN1Cc2ccccc2/C1=N\C(=O)Nc1ccccc1 |  | inconclusive: 16.4 µM [activator, partial curve, poor fit]

SMILES | activity change, negative = inhibition | Potency
CC(C)CNC(=O)c1cccc(NC(=O)Cc2ccc(Cl)cc2)c1 |  | inconclusive: 23.1 µM [inhibitor, single point]
Cc1cc(N2CCN(c3ccccc3F)CC2)nc2cc(O)ccc12 |  | inconclusive: 29.1 µM [activator, single point]
COc1ccc(C(=O)NCc2cc(C)nc3ccccc23)cc1OC |  | inconclusive: 29.1 µM [inhibitor, single point]
Cc1onc(-c2ccccc2Cl)c1C(=O)N1CCN(c2nc3ccccc3s2)CC1 |  | active: 13 µM
FCCCOc1ccc(-c2ccnc3ncnn23)cc1 |  | inconclusive: 20.6 µM [activator, single point]
Cc1c(C(=O)Nc2ccccc2F)sc2ncn(CC(=O)N3CCOCC3)c(=O)c12 |  | inconclusive: 16.4 µM [activator, partial curve, poor fit]
COc1ccc(OC)c(-c2csc(-c3cccs3)n2)c1 |  | inconclusive: 16.4 µM [activator, single point]
Cc1nc(-c2ccccc2)sc1C(=O)/C=C/N(C)C |  | inconclusive: 23.1 µM [activator, partial curve]
O=C(COC(=O)c1ccc([N+](=O)[O-])o1)NC1CCCc2ccccc21 (stereo not given) |  | inconclusive: 1.3 µM [inhibitor, single point]
CC1(C)COC2(OC1)C(=O)Nc1ccccc12 | inactive: -10.5% | 
COc1ccc(S(=O)(=O)CCC(=O)N2CCN(c3ccc(C(C)=O)cc3)CC2)cc1 |  | inconclusive: 16.4 µM [activator, partial curve, poor fit]
Cn1c(N)c(C(=O)CSc2ccccn2)c(=O)n(C)c1=O |  | inconclusive: 18.4 µM [activator, single point]
O=C(Cc1ccc(Cl)cc1)Nc1ccccc1N1CCN(C(=O)c2ccccc2)CC1 |  | inconclusive: 29.1 µM [inhibitor, single point]
COc1ccc(CCN2CCCn3c2nc2c3c(=O)n(Cc3ccccc3F)c(=O)n2C)cc1OC |  | inconclusive: 29.1 µM [inhibitor, single point]
CCc1ccc(-c2cc(C)no2)cc1S(=O)(=O)N1CCN(C(=O)c2ccco2)CC1 |  | inconclusive: 25.9 µM [inhibitor, partial curve, poor fit]
CC(=O)C(Cc1ccccc1)NC(=O)COC(=O)c1ccc(-n2cnnn2)cc1 (stereo not given) | inactive: 12.7% | 
CCn1c(C)nc2cc(C(=O)N/N=C/c3ccc(OC)cc3)ccc21 | inactive: -8.57% | 
CN(C)CCCn1c(SCC(=O)N2c3ccccc3Sc3ccccc32)nc2ccccc2c1=O |  | inconclusive: 20.6 µM [inhibitor, single point]
CC(c1ccccc1)n1c(-c2ccc(C(C)(C)C)cc2)n[nH]c1=S (stereo not given) | inactive: 9.63% | 
CC(C)=C1C2CCC1C1C(=O)N(c3ccc4c(c3)OCO4)C(=O)C21 (stereo not given) | inactive: -6.27% | 
COc1ccc(CN(C(=O)c2snc(C(N)=O)c2N)C(C(=O)NC2CCCC2)c2ccco2)cc1 (stereo not given) | inactive: -4.75% | 
CCN(CC(=O)Nc1ccccc1C(F)(F)F)C(=O)c1ccc(N2CCCC2=O)cc1 | inactive: -24.7% | 

Reference: PubChem BioAssay AID504467 (National Center for Advancing Translational Sciences (NCATS), 2011)
